Here are results for 1 molecule from patent CN113939539A.

The target in this experiment is 猴CSF-1R-his蛋白 (Acro biosystems, Cat#CSR-C52E1) (monkey (cynomolgus)). In words: SPR (Biacore), antibody captured by anti-human IgG on CM5, monkey CSF-1R-his in solution. On the technique in general: SPR reads the build-up and loss of mass on a sensor chip optically.

No constants are given. Whether binding was seen depends on the method and setting. Some entries that bind do so weakly or less than the wild type.

B1: 卡比利珠单抗 (antibody, human IgG4 S228P, kappa, V domains shown)
VH: QVQLVQSGAEVKKPGSSVKVSCKASGYTFTDNYMIWVRQAPGQGLEWMGDINPYNGGTTFNQKFKGRVTITADKSTSTAYMELSSLRSEDTAVYYCARESPYFSNLYVMDYWGQGTLVTVSS
VL: NIVLTQSPATLSLSPGERATLSCKASQSVDYDGDNYMNWYQQKPGQAPRLLIYAASNLESGIPARFSGSGSGTDFTLTISSLEPEDFAVYYCHLSNEDLSTFGGGTKVEIKR
Turning to B1, the binding entry is given as “binds”.
